Results on two substances are retold here after publication PMC12661054, “The CIP2A-TOPBP1 axis facilitates mitotic DNA repair via MiDAS and MMEJ” (Nature Communications, 2025).

Chains of the proteins cited; added tags and fusions are not shown.
UniProt Q92547: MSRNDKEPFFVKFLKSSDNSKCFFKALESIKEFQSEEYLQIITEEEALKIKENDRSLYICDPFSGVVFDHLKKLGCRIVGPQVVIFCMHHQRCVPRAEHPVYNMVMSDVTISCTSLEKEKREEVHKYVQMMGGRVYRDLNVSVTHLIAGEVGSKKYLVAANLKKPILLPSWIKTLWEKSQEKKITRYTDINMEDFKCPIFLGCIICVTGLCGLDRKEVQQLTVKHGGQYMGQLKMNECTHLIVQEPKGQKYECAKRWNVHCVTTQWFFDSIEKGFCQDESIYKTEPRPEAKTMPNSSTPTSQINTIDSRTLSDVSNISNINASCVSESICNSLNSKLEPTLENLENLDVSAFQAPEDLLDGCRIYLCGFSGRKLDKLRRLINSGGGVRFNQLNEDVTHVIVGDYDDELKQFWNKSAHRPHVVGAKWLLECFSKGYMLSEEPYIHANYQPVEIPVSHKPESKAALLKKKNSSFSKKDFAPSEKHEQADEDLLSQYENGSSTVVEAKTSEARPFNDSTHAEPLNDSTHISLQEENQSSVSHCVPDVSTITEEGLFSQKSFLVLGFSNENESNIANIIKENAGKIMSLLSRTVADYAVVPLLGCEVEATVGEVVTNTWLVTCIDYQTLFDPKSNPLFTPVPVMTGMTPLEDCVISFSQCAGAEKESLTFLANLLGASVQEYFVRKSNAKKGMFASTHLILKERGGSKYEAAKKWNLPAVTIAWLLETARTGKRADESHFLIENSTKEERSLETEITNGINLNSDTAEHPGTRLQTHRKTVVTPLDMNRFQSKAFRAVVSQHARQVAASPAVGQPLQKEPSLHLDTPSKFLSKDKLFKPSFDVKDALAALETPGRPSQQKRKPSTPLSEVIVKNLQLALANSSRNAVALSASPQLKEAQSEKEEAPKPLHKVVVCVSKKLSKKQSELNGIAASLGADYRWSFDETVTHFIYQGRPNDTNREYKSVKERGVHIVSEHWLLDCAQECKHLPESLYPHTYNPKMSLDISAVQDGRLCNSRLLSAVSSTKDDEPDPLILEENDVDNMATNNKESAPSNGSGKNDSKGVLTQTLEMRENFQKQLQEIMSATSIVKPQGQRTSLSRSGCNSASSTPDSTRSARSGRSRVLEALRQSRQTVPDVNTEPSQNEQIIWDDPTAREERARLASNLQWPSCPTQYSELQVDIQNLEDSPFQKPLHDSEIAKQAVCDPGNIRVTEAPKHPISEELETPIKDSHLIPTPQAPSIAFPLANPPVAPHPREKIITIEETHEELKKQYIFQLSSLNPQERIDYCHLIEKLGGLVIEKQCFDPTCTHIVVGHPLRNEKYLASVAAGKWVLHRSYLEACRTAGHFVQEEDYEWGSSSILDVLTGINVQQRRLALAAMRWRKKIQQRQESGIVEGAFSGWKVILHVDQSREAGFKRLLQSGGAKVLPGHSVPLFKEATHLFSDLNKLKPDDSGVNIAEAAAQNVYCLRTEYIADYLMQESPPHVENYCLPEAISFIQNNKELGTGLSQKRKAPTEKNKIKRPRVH
UniProt Q8IY92: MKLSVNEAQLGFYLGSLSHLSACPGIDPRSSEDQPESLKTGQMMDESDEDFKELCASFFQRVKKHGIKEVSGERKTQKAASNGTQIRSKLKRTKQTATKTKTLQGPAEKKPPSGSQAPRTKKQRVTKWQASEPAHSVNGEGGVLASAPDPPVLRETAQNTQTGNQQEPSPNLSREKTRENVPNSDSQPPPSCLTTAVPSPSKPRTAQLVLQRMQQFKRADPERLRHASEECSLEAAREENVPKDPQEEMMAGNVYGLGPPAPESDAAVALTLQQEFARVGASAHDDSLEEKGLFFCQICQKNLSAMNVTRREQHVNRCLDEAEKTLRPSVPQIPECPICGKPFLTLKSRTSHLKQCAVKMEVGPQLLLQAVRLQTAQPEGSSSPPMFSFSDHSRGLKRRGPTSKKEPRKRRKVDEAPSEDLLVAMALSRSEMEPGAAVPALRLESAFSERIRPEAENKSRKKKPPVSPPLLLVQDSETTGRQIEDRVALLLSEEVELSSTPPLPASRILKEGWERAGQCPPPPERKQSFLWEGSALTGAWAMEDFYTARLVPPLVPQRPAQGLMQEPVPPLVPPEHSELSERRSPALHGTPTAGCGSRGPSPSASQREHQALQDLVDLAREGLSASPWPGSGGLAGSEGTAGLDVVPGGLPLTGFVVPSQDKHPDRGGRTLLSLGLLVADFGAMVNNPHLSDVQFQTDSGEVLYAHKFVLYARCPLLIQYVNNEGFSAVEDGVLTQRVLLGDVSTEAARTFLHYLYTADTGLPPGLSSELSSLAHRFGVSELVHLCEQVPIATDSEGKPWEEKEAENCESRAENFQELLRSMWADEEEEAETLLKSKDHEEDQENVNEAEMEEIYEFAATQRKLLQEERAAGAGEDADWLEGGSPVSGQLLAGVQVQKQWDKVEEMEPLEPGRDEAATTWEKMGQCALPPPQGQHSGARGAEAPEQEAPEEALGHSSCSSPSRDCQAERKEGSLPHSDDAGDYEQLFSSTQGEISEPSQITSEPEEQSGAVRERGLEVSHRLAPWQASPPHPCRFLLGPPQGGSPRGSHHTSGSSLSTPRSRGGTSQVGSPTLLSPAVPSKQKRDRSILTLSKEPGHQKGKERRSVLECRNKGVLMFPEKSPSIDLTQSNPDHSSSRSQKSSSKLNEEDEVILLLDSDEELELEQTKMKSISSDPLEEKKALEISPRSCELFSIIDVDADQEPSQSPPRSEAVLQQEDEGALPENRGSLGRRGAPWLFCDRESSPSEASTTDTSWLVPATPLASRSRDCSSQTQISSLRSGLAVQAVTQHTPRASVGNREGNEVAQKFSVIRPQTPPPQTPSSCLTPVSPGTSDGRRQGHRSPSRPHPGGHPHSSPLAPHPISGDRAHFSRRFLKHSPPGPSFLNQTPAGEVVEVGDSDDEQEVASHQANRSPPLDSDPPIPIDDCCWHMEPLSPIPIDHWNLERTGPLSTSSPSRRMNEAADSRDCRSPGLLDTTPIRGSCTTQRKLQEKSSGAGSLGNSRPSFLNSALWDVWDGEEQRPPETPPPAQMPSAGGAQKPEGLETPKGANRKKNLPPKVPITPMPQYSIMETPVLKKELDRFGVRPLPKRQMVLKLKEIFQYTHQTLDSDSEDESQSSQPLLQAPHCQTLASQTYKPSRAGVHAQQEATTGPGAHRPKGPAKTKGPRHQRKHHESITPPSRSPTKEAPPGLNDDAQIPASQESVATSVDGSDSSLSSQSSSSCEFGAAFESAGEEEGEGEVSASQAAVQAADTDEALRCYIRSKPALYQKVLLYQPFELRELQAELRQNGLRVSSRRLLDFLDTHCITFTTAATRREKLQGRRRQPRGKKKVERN
UniProt Q5VYV7: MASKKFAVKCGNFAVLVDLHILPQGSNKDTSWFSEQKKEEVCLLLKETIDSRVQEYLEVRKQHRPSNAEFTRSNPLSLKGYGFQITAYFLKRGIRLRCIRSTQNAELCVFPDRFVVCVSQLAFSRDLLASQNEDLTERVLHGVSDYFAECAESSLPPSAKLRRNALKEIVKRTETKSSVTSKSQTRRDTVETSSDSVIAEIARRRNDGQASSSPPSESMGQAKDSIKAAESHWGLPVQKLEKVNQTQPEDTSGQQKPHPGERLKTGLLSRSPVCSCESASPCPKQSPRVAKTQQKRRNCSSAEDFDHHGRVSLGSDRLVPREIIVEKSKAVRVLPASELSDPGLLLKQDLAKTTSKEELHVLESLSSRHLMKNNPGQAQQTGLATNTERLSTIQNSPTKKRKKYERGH

The target in test [1] is TOPBP1 (endogenous) (human (endogenous in HEK293TN)) (UniProt Q92547). The experiment in a line: affinity purification with mass spectrometry; endogenous TOPBP1 precipitated with anti-TOPBP1 (A300-111A) on Dynabeads protein G from benzonase-treated HEK293TN lysates (asynchronous, S phase, M phase); IgG beads as control; label-free DIA LC-MS.
Test [2] shares this target. As to the kind of experiment: affinity purification with mass spectrometry; endogenous TOPBP1 Co-IPs from asynchronous and M phase synchronised HEK293TN cells; TMT isobaric labelling, quantitative LC-MS.

No constants are given. Whether binding was seen depends on the method and setting. In cells and extracts the contact can be indirect. Here binding means that the protein was enriched with, or labelled near, the bait; the list need not be complete.

With “SLX4 (endogenous) (from UniProt Q8IY92 1-1834)”, the binding result in test [1] and in test [2] was “binds” throughout. Turning to “SLX4IP (endogenous) (from UniProt Q5VYV7 1-408)”, in test [2], the binding result is recorded as “binds”.
